## Library screen at single concentrations

By UniProt entry, the sequences of proteins in these tests, tags left out.
UniProt P9WFT3, whole entry: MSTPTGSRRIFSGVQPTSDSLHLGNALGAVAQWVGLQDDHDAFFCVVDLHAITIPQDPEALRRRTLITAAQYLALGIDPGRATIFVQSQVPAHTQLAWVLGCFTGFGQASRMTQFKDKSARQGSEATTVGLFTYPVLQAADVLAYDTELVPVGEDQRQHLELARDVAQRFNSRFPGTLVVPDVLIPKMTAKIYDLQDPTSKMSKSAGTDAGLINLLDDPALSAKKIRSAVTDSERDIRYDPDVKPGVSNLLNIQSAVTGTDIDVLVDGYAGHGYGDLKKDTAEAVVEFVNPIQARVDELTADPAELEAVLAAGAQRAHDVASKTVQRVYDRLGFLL
UniProt P9WNZ1, whole entry: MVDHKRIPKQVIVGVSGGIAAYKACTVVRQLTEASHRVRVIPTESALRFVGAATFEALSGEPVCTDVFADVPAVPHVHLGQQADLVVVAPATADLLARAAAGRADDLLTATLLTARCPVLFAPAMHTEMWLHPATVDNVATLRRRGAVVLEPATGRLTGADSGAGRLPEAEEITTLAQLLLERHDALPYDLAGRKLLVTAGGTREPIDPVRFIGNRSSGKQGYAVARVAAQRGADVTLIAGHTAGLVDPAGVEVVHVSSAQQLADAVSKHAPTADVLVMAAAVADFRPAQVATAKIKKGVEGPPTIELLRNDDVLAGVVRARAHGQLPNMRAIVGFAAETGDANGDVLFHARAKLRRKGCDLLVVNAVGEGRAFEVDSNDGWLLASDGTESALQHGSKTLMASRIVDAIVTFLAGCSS

Measurements from “University of Dundee, Small-Polar-MMV Screening Library” (2021), ChEMBL document CHEMBL3988442.

Leishmania in macrophages: 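Cell assay of Leishmania donovani living inside macrophages; the read-out is not stated. Compounds at 30 µM. Direction is inferred from retests: higher values go with stronger inhibition. Of about 69,000 compounds tested this way, about 1,000 (1.5%) reached 50% or more in at least one test.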
MtTrpRS: 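Tryptophan-tRNA ligase, Mycobacterium tuberculosis (UniProt P9WFT3). Enzyme assay of tryptophanyl-tRNA synthetase; the read-out is not stated. Tested at 10 µM. Direction is not recorded; retested compounds ran higher, which suggests that high means inhibition. About 65,000 compounds were tested under these conditions; 0.098% (about 64) showed 50% or more at least once.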
Toxoplasma: 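Assay of Toxoplasma gondii numbers, read through their beta-galactosidase reporter with a colour substrate. Concentration: 10 µM. The record gives no direction; the compounds picked for IC50 retests had high values, so higher reads as fewer parasites. Size under these conditions: about 67,000 compounds, about 260 of them at 50% or above in at least one test.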
CoaBC: 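Enzyme assay of CoaBC with a phosphate dye (Biomol Green) read at 650 nm. Target: Coenzyme A biosynthesis protein CoaBC, Mycobacterium tuberculosis (UniProt P9WNZ1). Compounds at 30 µM. Higher reads as stronger inhibition, judged from the few compounds that gave an IC50. Most strong results did not repeat in a second test. About 67,000 compounds were tested under these conditions; 0.06% (about 40) showed 50% or more at least once.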

Each number is a percent effect as filed.
How 0% and 100% were set is not recorded. Most values in the screen are low, and negative values occur.
Compounds were drawn at random from those tested, without regard to their results.

{"compound": "Cc1ccc(N2CCc3c(CN(C)Cc4ccco4)cncc3C2)nn1.Cl.Cl", "Leishmania in macrophages": 7.628, "Toxoplasma": 1.966}
{"compound": "CCC[C@H]1CN(CCS(C)(=O)=O)C[C@@H]1NC(=O)c1ccccc1F", "Leishmania in macrophages": 12.05, "MtTrpRS": 0.6988, "Toxoplasma": 6.608, "CoaBC": -5.055}
{"compound": "O=C(CN1CCC(C(=O)c2cc(F)ccc2F)CC1)NC1CCCC1", "Leishmania in macrophages": 9.976, "MtTrpRS": 7.945, "Toxoplasma": 0.4525, "CoaBC": 0.6748}
{"compound": "CS(=O)(=O)Nc1cccc(CNC(=O)c2cccs2)c1", "Leishmania in macrophages": 0.0441, "MtTrpRS": 11.75, "Toxoplasma": -5.664, "CoaBC": -2.297}
{"compound": "COC1CN(C(=O)OCC(C)C)CCC(=O)N(C)c2ccccc21", "stereo": "stereo unspecified", "Leishmania in macrophages": 0.3088, "Toxoplasma": -0.7962, "CoaBC": 0.7264}
{"compound": "Cc1ccccc1C(O)CNS(=O)(=O)Cc1cccc(C#N)c1", "stereo": "stereo unspecified", "Leishmania in macrophages": 31.31, "MtTrpRS": 3.44, "Toxoplasma": 4.118, "CoaBC": 4.12}
{"compound": "CN(c1ccc(C#N)cn1)C1CCCN(Cc2noc(C3CC3)n2)C1", "stereo": "stereo unspecified", "Leishmania in macrophages": 1.673, "MtTrpRS": -2.051, "Toxoplasma": -15.16, "CoaBC": -3.44}
{"compound": "CCc1ccccc1OC1CN(C(=O)CN(C)Cc2ccncc2)C1", "Leishmania in macrophages": 36.04, "MtTrpRS": 0.6606, "Toxoplasma": 17.05, "CoaBC": 5.217}
{"compound": "COc1cccc(CNC2CCCOc3cc(C)ccc32)n1", "stereo": "stereo unspecified", "Leishmania in macrophages": 4.966, "MtTrpRS": -5.21, "Toxoplasma": 1.447, "CoaBC": -2.778}
{"compound": "Cc1ccc(C)c(S(=O)(=O)NCCOc2ccc3nnc(C)n3n2)c1", "Leishmania in macrophages": -12.21, "MtTrpRS": -2.524, "Toxoplasma": -14.54, "CoaBC": -0.1272}
{"compound": "CC(C)CN1Cc2nc(N)ncc2C1=O", "Leishmania in macrophages": 4.572, "MtTrpRS": 3.055, "Toxoplasma": -14.28, "CoaBC": 3.827}
{"compound": "COc1ccccc1CC1CCCN(CCC#N)C1", "stereo": "stereo unspecified", "Leishmania in macrophages": -5.727, "MtTrpRS": -3.675, "Toxoplasma": -5.139, "CoaBC": 5.128}
{"compound": "O=C(c1ccoc1)N1CC[C@H]2C[C@@H](c3ccncn3)O[C@@H]2C1", "MtTrpRS": -2.092, "CoaBC": 3.782}
{"compound": "CNC(=O)[C@H]1C[C@@H]2CN(S(=O)(=O)c3ccc(F)cc3)C[C@@H]2N1C", "MtTrpRS": 1.465, "CoaBC": 0}
{"compound": "FC1(F)CCN(Cc2cccnc2)CC12CCN(c1ccccn1)C2", "stereo": "stereo unspecified", "MtTrpRS": 5.318, "CoaBC": 4.37}
{"compound": "O=C1[C@@H]2CCN(C3CCC3)C[C@@H]2OCCN1Cc1ccncc1", "MtTrpRS": 5.091, "CoaBC": 3.382}
{"compound": "Cn1cccc1C(=O)N1CC[C@H]2[C@H](CO[C@H]2CNS(C)(=O)=O)C1", "MtTrpRS": 0.6509, "CoaBC": 4.235}
{"compound": "Cc1ncc(CN2CCc3nc4cc(C(C)(C)C)nn4c(O)c3C2)n1C", "Leishmania in macrophages": -32.34, "MtTrpRS": -3.473, "Toxoplasma": 6.408, "CoaBC": -7.73}
{"compound": "c1coc(CN2CCn3c(nc4ccccc43)C2)c1", "Leishmania in macrophages": 31.46, "MtTrpRS": 1.018, "Toxoplasma": -10.62, "CoaBC": -0.2551}

Once more, the final 2:

{"compound": "Cc1ncc(CN2CCc3nc4cc(C(C)(C)C)nn4c(O)c3C2)n1C", "Leishmania in macrophages": -32.34, "MtTrpRS": -3.473, "Toxoplasma": 6.408, "CoaBC": -7.73}
{"compound": "c1coc(CN2CCn3c(nc4ccccc43)C2)c1", "Leishmania in macrophages": 31.46, "MtTrpRS": 1.018, "Toxoplasma": -10.62, "CoaBC": -0.2551}